This experiment in a line: qHTS Assay for Modulators of Lamin A Splicing. The conditions noted are these: HeLa LMNA splicing GFP/RFP minigene ratio, 48 h. The procedure, abridged:
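S3 HeLa cells stably expressing lamin A-EGFP splicing minigene plus DsRed2, 600 cells/well, 48 h compound exposure at 37C. Laser-scanning cytometry; analysed as GFP (500-530 nm)/RFP (575-640 nm) total intensity ratio; 0.5% DMSO vehicle.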
(qHTS replaces the single test concentration by a dilution series.)

Where [1] appears, read: measured here: RFP viability control channel.
Setting [2] is: measured here: GFP splicing reporter channel.

This is one part of the list. Shown are side measurements of this screen, not its main read-out; they come without a call. The list favours compounds with an active or inconclusive main result. Potencies come from curve fits of mixed quality, noted in brackets.

On to `CC(C)C(=O)Nc1nc(-c2ccccc2)ns1`, for which the AC50 – broadly, the concentration giving half of the maximal activity seen – under setting [1] is 35.5 µM [rising, single point].

Take `CC1CCN(CC(O)COC2CC(C)CCC2C(C)C)CC1` (stereo not drawn): under setting [2], the AC50 is 25.1 µM [falling, single point].

Turning to `Cc1ccc2nc(CSc3nnc(NC(=O)c4cccc(Br)c4)s3)cc(=O)n2c1`, the AC50 runs as follows: under setting [2], 0.0224 µM [rising, full curve, poor fit]; under setting [1], 0.0224 µM [rising, full curve].

Regarding `CCN(C(=O)CSc1nc2ccccc2n1CC(=O)NCc1ccc(OC)cc1)c1ccccc1`, under setting [2], the AC50 was 0.0891 µM [rising, full curve, poor fit].

Take `COC(CNC(=O)c1cc(Sc2nnc(C)s2)nc2ccccc12)OC`: the AC50 under setting [1] is 10 µM [rising, single point].

As for `CNC(=O)C1CCC(Cn2c(=O)c3sccc3n(CC(=O)NCc3cccc(OC)c3)c2=O)CC1` (stereo not drawn), the AC50 under setting [2] is 0.0355 µM [falling, full curve, poor fit].

Turning to `Nc1nc2c(c(=O)[nH]1)N(C=O)[C@H](CNc1ccc(C(=O)N[C@@H](CCC(=O)O)C(=O)O)cc1)CN2`, the AC50 is 12.6 µM [falling, single point] under setting [2] and 7.08 µM [falling, single point] under setting [1].

`CC(=O)NCCNc1nc(-c2ccc(N(C)C)cc2)nc2ccccc12`: the AC50 under setting [1] was 12.6 µM [rising, partial curve].

As to `CCCCCCCC/C=C\CCCCCCCC(=O)NCCO`, the AC50 under setting [2] was 14.1 µM [rising, single point].

For `CS(=O)(=O)N(CC(=O)N1CCOCC1)c1cccc([N+](=O)[O-])c1`, under setting [2], the half-maximal activity concentration (AC50) was 2.24 µM [rising, full curve].

`Cc1ccc(S(=O)(=O)N/N=C\c2ccccc2OCc2ccccc2)cc1`: the AC50 was 22.4 µM [falling, single point] under setting [2] and 17.8 µM [falling, single point] under setting [1].

As to `CCn1c(=O)cc(SCC(=O)NCc2ccco2)c2ccccc21`, the AC50 under setting [2] was 3.98 µM [falling, single point].

With `CC12CCC(C/C1=N\N=C1\NC(=O)/C(=C\c3ccc(Cl)cc3)S1)C2(C)C` (stereo not drawn), the AC50 under setting [1] was 6.31 µM [rising, single point].

`O=C1/C(=C\c2cccnc2)SC(=S)N1C1CCS(=O)(=O)C1` (stereo not drawn): the AC50 under setting [2] was 35.5 µM [falling, single point] and the AC50 under setting [1] was 35.5 µM [falling, single point].

Turning to `CCC(=O)Nc1nc2ccccc2n1Cc1ccc(C)cc1`, the AC50 reads like this: under setting [2], 35.5 µM [rising, single point]; under setting [1], 35.5 µM [rising, single point].

In the case of `Cc1cc(C)cc(OCC2CNC(=O)O2)c1` (stereo not drawn), the AC50 is, setting by setting: under setting [2], 35.5 µM [falling, single point]; under setting [1], 35.5 µM [falling, single point].

In the case of `CCOc1ccccc1NC(=O)N1CCCC(c2nc3c(nnn3Cc3ccc(C)cc3)c(=O)[nH]2)C1` (stereo not drawn), the AC50 under setting [2] is 2.24 µM [rising, partial curve, poor fit].

With `COc1ccccc1-c1ccc2ncnc(NC3CC3)c2c1`, the AC50 under setting [2] is 11.2 µM [falling, partial curve].

For `COc1ccc(C(=O)NCc2nnc(SCC(=O)Nc3ccccc3OC)n2C)cc1`, the AC50 under setting [1] is 35.5 µM [rising, partial curve].

Regarding `CCOC(=O)Oc1c(OC)cc(C(=O)O[C@H]2C[C@H]3CN4CCc5c([nH]c6cc(OC)ccc56)[C@@H]4C[C@H]3[C@@H](C(=O)OC)[C@@H]2OC)cc1OC`, the AC50 under setting [2] was 0.562 µM [falling, single point].

Consider `CCc1ccc(N/C(N)=N/c2nc(CSc3ncccn3)cc(=O)[nH]2)cc1`, for which the AC50 was 0.2 µM [falling, partial curve] under setting [2] and 0.0708 µM [falling, full curve] under setting [1].

On to `Cc1ccccc1-c1nc(-n2ccnc2)c2ccccc2n1`, for which the AC50 is 15.8 µM [falling, partial curve] under setting [2] and 22.4 µM [falling, partial curve] under setting [1].

Regarding `CN1/C(=C\C(=O)c2ccccc2Cl)c2ccccc2CC1(C)C`, under setting [1], the AC50 is 15.8 µM [rising, single point].

For `CC1CCN(c2cc(N3CCOCC3)c([N+](=O)[O-])cc2F)CC1`, the AC50 by setting is: under setting [2], 12.6 µM [rising, single point]; under setting [1], 17.8 µM [rising, partial curve].

With `Cc1ccc(O)c(-n2nc3ccccc3n2)c1`, the AC50 reads like this: under setting [2], 1.12 µM [falling, partial curve, poor fit]; under setting [1], 0.631 µM [falling, partial curve, poor fit].

Take `COc1cccc(N2C(=O)N(CC(=O)NCc3cccc(OC)c3OC)c3ccccc3S2(=O)=O)c1`: the AC50 under setting [1] is 5.62 µM [falling, partial curve].

As to `O=[N+]([O-])c1ccccc1CSc1nc2ccccc2o1`, the AC50 under setting [1] was 11.2 µM [rising, partial curve].

Consider `Cc1cccc(N2CCN(Cc3nc(-c4ccc(F)cc4F)oc3C)CC2)n1`, for which the AC50 under setting [1] is 10 µM [falling, partial curve, poor fit].

Regarding `Cc1cc(C)c(-c2csc(NC(=O)c3cc([N+](=O)[O-])ccc3N3CCOCC3)n2)c(C)c1`, the AC50 was 11.2 µM [rising, partial curve] under setting [2] and 22.4 µM [rising, partial curve] under setting [1].

With `Cc1cc(C)c(S(=O)(=O)c2ccccc2)c(OC(=O)c2c(Cl)cc(Cl)cc2Cl)n1`, the AC50 under setting [1] is 31.6 µM [rising, single point].

Consider `Cc1cc(C(=O)c2ccc(C(C)(C)C)cc2)c(NC(=O)CCl)s1`, for which the AC50 under setting [2] was 6.31 µM [falling, partial curve].

With `Cc1ccc(-n2ncc3c(=O)n(CC(=O)N4CCCc5ccccc54)cnc32)cc1C`, the AC50 under setting [1] is 12.6 µM [rising, single point].

For the molecule `N#C/C(=C/c1ccc(N2CCOCC2)o1)c1nc2ccccc2[nH]1`, the AC50 runs as follows: under setting [2], 15.8 µM [falling, single point]; under setting [1], 15.8 µM [falling, single point].

For the molecule `C/C(=N\O)c1ccc2c3ccccc3n(C)c2c1`, the AC50 runs as follows: under setting [2], 5.62 µM [falling, partial curve]; under setting [1], 5.01 µM [falling, partial curve].

Consider `O=C1Nc2ccccc2S/C1=C/Nc1cccc(Cl)c1`, for which, under setting [1], the concentration at half-maximal activity (AC50) was 35.5 µM [falling, single point].
